Test results: publication PMC6219760
Results are given in words; binding and its absence hold for the method and conditions named. Binding seen in cells or lysates may run through a third protein. Sequences can lack the tags named with a protein.

Key:
[1] = molecular target: T1, Buc-GFP, in vitro translated (wt Buc) (zebrafish) (UniProt H0WFA5); assay: pull-down; in vitro translated proteins diluted in YSS buffer, GFP fusions held on GFP Trap beads, Western blot
T1 sequence: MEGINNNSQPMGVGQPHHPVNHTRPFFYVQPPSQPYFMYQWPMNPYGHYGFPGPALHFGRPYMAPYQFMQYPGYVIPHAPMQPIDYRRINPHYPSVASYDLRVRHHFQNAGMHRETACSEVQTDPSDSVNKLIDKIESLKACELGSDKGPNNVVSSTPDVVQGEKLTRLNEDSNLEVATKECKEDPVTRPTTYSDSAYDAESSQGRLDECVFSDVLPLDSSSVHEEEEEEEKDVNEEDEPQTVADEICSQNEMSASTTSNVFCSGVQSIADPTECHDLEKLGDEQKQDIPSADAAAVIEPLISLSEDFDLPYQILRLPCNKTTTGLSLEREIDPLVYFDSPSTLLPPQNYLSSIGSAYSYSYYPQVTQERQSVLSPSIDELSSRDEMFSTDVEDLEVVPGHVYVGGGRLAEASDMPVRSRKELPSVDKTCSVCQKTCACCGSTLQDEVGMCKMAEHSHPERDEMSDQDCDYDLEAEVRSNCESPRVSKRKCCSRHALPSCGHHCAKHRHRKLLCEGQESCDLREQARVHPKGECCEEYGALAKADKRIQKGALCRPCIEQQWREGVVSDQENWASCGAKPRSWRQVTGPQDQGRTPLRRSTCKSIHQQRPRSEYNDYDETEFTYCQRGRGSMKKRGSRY

[2] = molecular target: T2, Buc-VC (Buc fused to the C-terminal fragment of split Venus) (zebrafish) (UniProt H0WFA5); assay: split reporter; BiFC with split Venus (VN, VC); mRNAs (200 pg each) injected into one-cell zebrafish embryos, fluorescence imaged at 3 hpf
T2 sequence: T1 sequence

binding [1] | binding [2] | Substance
no binding |  | Myc-Non-muscle Myosin II (NMII; 20 kD), in vitro translated
 | no binding | VN-Venus fragment alone (N-terminal fragment of split Venus) (domain or fragment)
